{
  "source": "PubChem BioAssay AID1347423",
  "about": "(Functional Genomics Laboratory (NCATS/FGL), 2020)",
  "note": "Screen size: about 52,000 sequences; about 210 (0.4%) were called active.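 How the source made its calls: active means gene whose silencing raises cell survival under the drug, median off-target-corrected z-score across its silencing RNAs 2 or more; inactive means the rest.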 Some of the results follow.",
  "data": [
    {"assay": "Resistance to Poly (ADP-Ribose) Polymerase inhibitor: Gene Identification via Genome-wide siRNA Screen", "conditions": "mouse BRCA2 R2336H ES cells, olaparib, CellTiter-Glo viability; active compounds read high", "method_in_brief": "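Genome-wide siRNA screen (3 siRNAs/gene, 20 nM) in mouse ES cells carrying hypomorphic BRCA2 R2336H; olaparib 500 nM added 48 h post-transfection, CellTiter-Glo viability 72 h later. Normalized to plate-median negative control; MAD z-scores, gene median, seed-adjusted.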", "values": [
      {"sequence": "GCCUCACGGUUAGUUGGGATT against 3110062M04Rik", "z-score": "inactive: -0.887"},
      {"sequence": "GCUCAUGCAUGAGAAUGCCTT against Ifi30", "z-score": "inactive: -0.033"},
      {"sequence": "CCUGGAUCUACUUUUCAGUTT against Mrgprd", "z-score": "inactive: -0.168"},
      {"sequence": "GGGACUUAGAAACAAUCCATT against Hsd3b4", "z-score": "inactive: 2.07"},
      {"sequence": "GGUGAUCAUAUAAGUUAGUTT against 9130416N05Rik", "z-score": "inactive: 0.54"},
      {"sequence": "GCUCAUCAAAACACUGACCTT against B130016L12Rik", "z-score": "inactive: -2.85"},
      {"sequence": "GGCAUUAUCGUGGUUGGCATT against 2310079N02Rik", "z-score": "inactive: -1.21"},
      {"sequence": "GCUGGUAUUGGCGAAUGGUTT against 4930506D23Rik", "z-score": "inactive: -3.07"},
      {"sequence": "CCAGACUAUUGACUUUCUGTT against 2700063A19Rik", "z-score": "inactive: 0.33"},
      {"sequence": "GGAUGACUCUAUCUUUCUATT against Igfbp4", "z-score": "inactive: 0.102"},
      {"sequence": "GGACGAUCUCUACAUAGAUTT against Mrps28", "z-score": "inactive: -0.0314"},
      {"sequence": "CCCUAACUCAGACUCCAUGTT against C530028O21Rik", "z-score": "inactive: -0.793"},
      {"sequence": "GCAUUGGGUAUAAAGUAAGTT against 4931440L10Rik", "z-score": "inactive: 0.404"},
      {"sequence": "GGAUGUUGGUCUCACAUCGTT against Bmpr2", "z-score": "inactive: 0.655"},
      {"sequence": "CCCAUGUAAGGAUGUGUCGTT against A930004K21Rik", "z-score": "inactive: -0.605"},
      {"sequence": "GCAACCUGUAUGCUUUUGUTT against 1110064L07Rik", "z-score": "inactive: 0.0915"},
      {"sequence": "GAAAAAUACCCUGGCACUGTT against Olfr823", "z-score": "inactive: 0.311"},
      {"sequence": "CGGAUAUUAUUGUUUGGAATT against Nalp9a", "z-score": "inactive: -0.209"},
      {"sequence": "CCGAAUCUGUCGUAUCACUTT against Dvl2", "z-score": "inactive: 1.5"},
      {"sequence": "GGUCUCUUUCAACAAAAAUTT against Sec22l2", "z-score": "inactive: 0.0105"},
      {"sequence": "CGUAUUAGUAAUAAGGGCATT against 3110050N22Rik", "z-score": "inactive: 0.444"},
      {"sequence": "GGGCUGAAGUGAAACCAGATT against D930048N14Rik", "z-score": "inactive: -2.49"},
      {"sequence": "GCCAAAGAGCAUAUCGAUUTT against 4921517N04Rik", "z-score": "inactive: -0.398"},
      {"sequence": "GGUUAUGAAGGUGUAUACUTT against Notch1", "z-score": "inactive: -0.525"},
      {"sequence": "GGAGUGAGAUUGUUAACAUTT against Ank1", "z-score": "inactive: -0.634"},
      {"sequence": "GGUUGCGAUGAGGAGACUATT against Olfr1318", "z-score": "inactive: -2.27"},
      {"sequence": "GGAUUUCAACAUGCCUCUGTT against 1110001A05Rik", "z-score": "inactive: -0.102"},
      {"sequence": "GGUGUGUGGCCAGAAAGUUTT against 2310047I15Rik", "z-score": "inactive: -2"},
      {"sequence": "CCAGUAUUCCUGAAAAUGATT against Tfg", "z-score": "inactive: -1.93"},
      {"sequence": "GGUAAUGUUAGCAGAACAATT against Ifih1", "z-score": "inactive: -1.25"},
      {"sequence": "GGUCGUCCAGCUGAAGAACTT against Nrbf1", "z-score": "inactive: -0.263"},
      {"sequence": "GGAAUCUGAAGGAGAUGCATT against Prss7", "z-score": "inactive: -0.352"},
      {"sequence": "GGAGUGGCCAUUAAAUUUATT against Slc17a8", "z-score": "inactive: 0.232"},
      {"sequence": "GGAAAAACUGGUCUAUCAATT against Polr3f", "z-score": "inactive: -2.5"},
      {"sequence": "CCUAUCAUUCUCAAAGGGATT against 1110067I12Rik", "z-score": "inactive: -0.411"},
      {"sequence": "UUCUAAUUGUCACUUGGUGTT against Olfr1474", "z-score": "inactive: 0.103"},
      {"sequence": "GGAGAUGGAAUGAAGUAUUTT against Fbxl21", "z-score": "inactive: -0.49"},
      {"sequence": "CCCUGUUAUUAUCUUGAUUTT against 1110067L22Rik", "z-score": "inactive: -0.515"},
      {"sequence": "GGAGGACAGGAAAACAGAATT against H2-Ke6", "z-score": "inactive: 0.303"},
      {"sequence": "GGAAACCAUCUUUGAACUUTT against 4932439K10Rik", "z-score": "inactive: 1.5"},
      {"sequence": "GCUACCAAAGGAAUUUUGATT against Cul4a", "z-score": "inactive: -0.739"},
      {"sequence": "CCGACACCUGUCAAUUCUGTT against Tcof1", "z-score": "inactive: -1.55"},
      {"sequence": "GCAGUAUGGGACUAUGCUUTT against Cp", "z-score": "inactive: 2.32"},
      {"sequence": "CCAAUAAGAAUUCAGAUCGTT against Ufd1l", "z-score": "inactive: 0.934"},
      {"sequence": "GGCAGAAAUACAAUCUUCGTT against D17Ertd488e", "z-score": "inactive: -0.627"},
      {"sequence": "GGUAAAAGAUGAGAAAAACTT against 2810052M02Rik", "z-score": "inactive: 0.201"},
      {"sequence": "GGUGGAAUUCUCUUCAACUTT against Mbtps1", "z-score": "inactive: -0.497"},
      {"sequence": "GGAUGAAAUCGAUUGUCUCTT against Ppgb", "z-score": "inactive: 0.669"},
      {"sequence": "GGCACAGAAUAUCCACCACTT against Olfr283", "z-score": "inactive: -1.16"},
      {"sequence": "CCGACUACAGCAUGUAUAUTT against 9230102I19Rik", "z-score": "inactive: -0.69"},
      {"sequence": "GGAAAUAAACAAGUCCCACTT against 2900073H19Rik", "z-score": "inactive: 0.14"},
      {"sequence": "GGAACUAGCCUUCACUGACTT against Rabggta", "z-score": "inactive: -0.909"},
      {"sequence": "GGGCUCCUAUUGGACAAUUTT against Foxj2", "z-score": "inactive: -1.55"},
      {"sequence": "CCGUAGCGAGACUUACAUCTT against Accn3", "z-score": "inactive: -0.146"},
      {"sequence": "GGAGGAAAAGGCAAUCGUUTT against Gtpbp5", "z-score": "inactive: -1.12"},
      {"sequence": "GUACUGCCCGUCCACUUUUTT against Insm2", "z-score": "inactive: -1.72"},
      {"sequence": "GGGACAAAAUUAUUCCUCCTT against Crsp2", "z-score": "inactive: -1.28"},
      {"sequence": "GGAUGAGAGGUAAAGUAACTT against Nptxr", "z-score": "inactive: -0.395"},
      {"sequence": "CCAGAGGUUCACAAAACGATT against Anapc5", "z-score": "inactive: -2.8"},
      {"sequence": "GGAGUUGUGGGAAGAAGAATT against Paip2", "z-score": "inactive: -1.66"},
      {"sequence": "GGAUCAGUGGUAUUGGUUCTT against Krtcap1", "z-score": "inactive: -0.882"},
      {"sequence": "GGACUCCGUCAUAUACGAATT against Olfr1102", "z-score": "inactive: 0.557"},
      {"sequence": "GCCUGGACACCAUACCAAUTT against Plxdc2", "z-score": "inactive: -0.485"},
      {"sequence": "UCCAGCUGGCGAAGUGGGCTT against LOC328779", "z-score": "inactive: 0.928"},
      {"sequence": "GCUGUUGUUUACUUGGCAATT against V1rh21", "z-score": "inactive: -0.442"}
    ]}
  ]
}
